This assay concerns the target T1, SRSF7-GFP fusion product (Serine/arginine-rich splicing factor 7, GFP-tagged at the C-terminus, from a BAC) (human) (UniProt Q16629).
T1 sequence: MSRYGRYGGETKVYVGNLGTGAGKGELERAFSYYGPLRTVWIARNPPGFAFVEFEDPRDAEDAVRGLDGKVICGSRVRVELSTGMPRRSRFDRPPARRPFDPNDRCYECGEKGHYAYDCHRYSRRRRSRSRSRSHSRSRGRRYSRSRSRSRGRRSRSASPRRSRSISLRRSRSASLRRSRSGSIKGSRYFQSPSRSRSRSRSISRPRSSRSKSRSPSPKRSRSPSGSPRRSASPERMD
Briefly: co-IP; GFP-Trap agarose beads on lysates of BAC-SRSF7-GFP MDA-MB-231 cells treated with 0.1% DMSO or 1 µM T-025 for 24 h; EBC buffer, benzonase, 300 mM NaCl, 2 h at 4 °C; six washes; Western blotting; MDA-MB-231-GFP cells as negative control.

Results are given in words; binding and its absence hold for the method and conditions named. Binding seen in cells or lysates may run through a third protein. Binding calls can cover weak binding; strength is not graded here. Sequences can lack the tags named with a protein.

Take “PRPF4B (human (endogenous in MDA-MB-231))”: the binding entry is given as “binds”.

The values are drawn from PMC12309053.
